Series [1] is described as follows: general procedure: Fmoc solid-phase peptide synthesis; Wang resin; HBTU/DIEA; BOP/DIEA for cyclisation. Particulars: whole synthesis.
The nature of series [2]: general procedure: Fmoc solid-phase peptide synthesis; Wang resin; trityl resin; HBTU/DIEA; BOP/DIEA for cyclisation. The settings on record: for isolated yield: whole synthesis, scale of the general procedure 0.1 mmole (STAT-91).
Series [3] in a line: general procedure: Fmoc solid-phase peptide synthesis; trityl resin; HBTU/DIEA; BOP/DIEA for cyclisation. Particulars: whole synthesis.
The nature of series [4]: Fmoc solid-phase peptide synthesis; Fmoc-Val-Wang resin; HBTU/DIEA; BOP/DIEA for cyclisation. The settings on record: whole synthesis, scale 0.1 mmole.

This is an account of results in patent US7718598 (dated 2010).

Values joined by “and” are separate entries in the source; they are usually repeats but may differ in a detail not shown here. Equal entries are not always repeated. For some assays here: Plain letter strings leave the end groups untold.

For HS—(CH2)2-Tyr-Arg-Phe-Gly-OH, the isolated mass in series [1] is on record as 70 mg. The isolated yield in series [2] was 45% yield. Take cyclo-[(HnB)Tyr-Arg Phe-Gly]: the cyclisation yield in series [2] (cyclisation step) came out at 40%.

Regarding “N-(2-hydroxy-6-nitrobenzyl)-Ala-Phe-Leu-Pro-Ala-OH”, in series [3], the isolated mass was 85 mg. Besides, in series [2], the isolated yield is 63% yield. Regarding HS—(CH2)2-Ala-Phe-Leu-Pro-Ala-OH, the isolated mass in series [1] is 25 mg. Moreover, the isolated yield in series [2] turned out to be 22% yield. As to “N-(2-hydroxy-5-nitrobenzyl)-Ala-Phe-Leu-Pro-Ala-OH”, the isolated mass in series [3] is listed as 114 mg. For the same substance, the isolated yield in series [2] worked out at 85% yield. Take TGYIKTELISV: the difficulty met result in series [4] is recorded as “no appreciable amount (<1%) of the target”.

For cyclo(YRFG), the difficulty met entry in series [2] (late stage modification step) was “Photolysis of this product in MeOH/AcOH was slow and yielded impure cyclo[Tyr-Arg-Phe-Gly]”. Besides, in series [2] (late stage modification step, photol. step), the step yield stood at 41%. For cyclo(AFLPA), the outcome in series [2] (cyclisation step) is “only cyclic dimer and some trimer were obtained, but no target monocyclic product”. The step yield in series [2] (late stage modification step, run 1) is 52% and 28%.
